From publication PMC11679285
Results are given in words; binding and its absence hold for the method and conditions named. Binding seen in cells or lysates may run through a third protein. Some binding calls cover weakened binding; strength is not graded here.

B1: TNF receptor associated factor 2 (TRAF2), Q12933 1-501 (protein)
chain: MAAASVTPPGSLELLQPGFSKTLLGTKLEAKYLCSACRNVLRRPFQAQCGHRYCSFCLASILSSGPQNCAACVHEGIYEEGISILESSSAFPDNAARREVESLPAVCPSDGCTWKGTLKEYESCHEGRCPLMLTECPACKGLVRLGEKERHLEHECPERSLSCRHCRAPCCGADVKAHHEVCPKFPLTCDGCGKKKIPREKFQDHVKTCGKCRVPCRFHAIGCLETVEGEKQQEHEVQWLREHLAMLLSSVLEAKPLLGDQSHAGSELLQRCESLEKKTATFENIVCVLNREVERVAMTAEACSRQHRLDQDKIEALSSKVQQLERSIGLKDLAMADLEQKVLEMEASTYDGVFIWKISDFARKRQEAVAGRIPAIFSPAFYTSRYGYKMCLRIYLNGDGTGRGTHLSLFFVVMKGPNDALLRWPFNQKVTLMLLDQNNREHVIDAFRPDVTSSSFQRPVNDMNIASGCPLFCPVSKMEAKNSYVRDDAIFIKAIVDLTGL
B2: TNFR1-associated death domain protein (TRADD) (protein, UniProt Q15628 1-312)
chain: MAAGQNGHEEWVGSAYLFVESSLDKVVLSDAYAHPQQKVAVYRALQAALAESGGSPDVLQMLKIHRSDPQLIVQLRFCGRQPCGRFLRAYREGALRAALQRSLAAALAQHSVPLQLELRAGAERLDALLADEERCLSCILAQQPDRLRDEELAELEDALRNLKCGSGARGGDGEVASAPLQPPVPSLSEVKPPPPPPPAQTFLFQGQPVVNRPLSLKDQQTFARSVGLKWRKVGRSLQRGCRALRDPALDSLAYEYEREGLYEQAFQLLRRFVQAEGRRATLQRLVEALEENELTSLAEDLLGLTDPNGGLA

Columns and labels:
[1] = molecular target: T1, caspase-8 (human (endogenous in MCF7)), Q14790; assay: co-IP; MCF7 lysate, immunoprecipitation with a caspase-8 antibody, western blot; cells treated with 10 uM jacaranone for 6 h, then TNFα (20 ng/mL) for 0.5 h; conditions: remark: other sources report otherwise
T1 chain: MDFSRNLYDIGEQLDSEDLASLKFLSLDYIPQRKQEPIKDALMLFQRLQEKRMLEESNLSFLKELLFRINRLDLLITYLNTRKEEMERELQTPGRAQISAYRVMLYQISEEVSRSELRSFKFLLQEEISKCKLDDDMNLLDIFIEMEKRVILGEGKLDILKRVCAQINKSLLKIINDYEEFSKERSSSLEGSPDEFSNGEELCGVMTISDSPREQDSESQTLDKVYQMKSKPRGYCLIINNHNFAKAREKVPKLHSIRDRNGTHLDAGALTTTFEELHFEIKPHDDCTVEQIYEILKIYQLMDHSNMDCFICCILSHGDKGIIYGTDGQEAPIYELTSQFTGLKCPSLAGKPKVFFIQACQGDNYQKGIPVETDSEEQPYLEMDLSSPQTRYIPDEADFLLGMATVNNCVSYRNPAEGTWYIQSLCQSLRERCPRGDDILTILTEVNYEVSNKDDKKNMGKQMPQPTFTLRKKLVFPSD

[2] = molecular target: caspase-8 (human (endogenous in MCF7)) (UniProt Q14790); assay: as above

Binder | binding [1] | binding [2]
B1 | binds | 
B2 |  | binds
